Experimental data: patent US20150337042A1 (AbbVie / Abbott, published 2015)

How the values were obtained:
[1] = target: truncated wild type EGFR 1-525 (EGFR1 (1-525)-SRGPF-Myc-NMHTG-6His) (human); assay: SPR (Biacore T100)
[2] = target: EGFRvIII extracellular domain (EGFR (1-29)-G-(298-645)-LESRGPF-Myc-NMHTG-6His) (human); assay: SPR (Biacore T100)
[3] = target: truncated wild type EGFR 1-525 (EGFR1 (1-525)-SRGPF-Myc-NMHTG-6His) (human); assay: SPR (summary of FIG. 6)

Measured: binding

B1: Antibody N (AbN) (antibody, V domains shown)
VH: EVQLQESGPGLVKPSQTLSLTCTVSGYSIGRDFAWNWIRQPPGKGLEWMGYISYSGNTRYQPSLKSRITISRDTSKNQFFLKLNSVTAADTATYYCVTASRGFPYWGQGTLVTVSS
VL: DIQMTQSPSSMSVSVGDRVTITCHSSQDITYNVGWLQQKPGKSFKGLIYHGSNLDHGVPSRFSGSGSGTDYTLTISSLQPEDFATYYCVQYDDFPWTFGGGTKLEIK
notes: Full length IgG1
binds: all assays above

B2: Antibody G (AbG) (antibody, V domains shown)
VH: B1 VH with G30S, R31N, P41L, S55K, F103L
VL: B1 VL with V33I, S52A, H56D, D93E
notes: Full length IgG1
binds: all assays above

B3: Antibody H (AbH) (antibody, V domains shown)
VH: B1 VH with R31K, S55N, F103L
VL: B1 VL with V33I, S52A, H56D, D93E
notes: Full length IgG1
binds: all assays above

B4: Antibody J (AbJ) (antibody, V domains shown)
VH: B1 VH with R31K, F103L
VL: B1 VL with V33I, S52A, H56D, D93E
notes: Full length IgG1
binds: all assays above

B5: Antibody L (AbL) (antibody, V domains shown)
VH: B1 VH with R31K, S55N, F103L
VL: B1 VL
notes: Full length IgG1
binds: all assays above

B6: Antibody M (AbM) (antibody, V domains shown)
VH: B1 VH with S55N
VL: B1 VL
notes: Full length IgG1
binds: all assays above

B7: Antibody O (AbO) (antibody, V domains shown)
VH: B1 VH with R31K, S55N
VL: B1 VL
notes: Full length IgG1; also called Antibody 0
binds: all assays above

B8: Antibody P (AbP) (antibody, V domains shown)
VH: B1 VH with G30S, R31H, R101W, F103L, Y105W
VL: B1 VL with T30N, Y31M, S52A, N53I, H56D, D92A, D93E
notes: Full length IgG1
binds: all assays above

Changes are numbered by the printed parent chain. Results are given in words; binding and its absence hold for the method and conditions named. A result given as binding can be weak or reduced; the word gives no strength.
